Consider two molecules from article PMC10281998.

No constants are given. Whether binding was seen depends on the method and setting. Binding seen in cells or lysates may run through a third protein. Binding can be weak; no strength is given. For part of these data: Where a sequence is shown, tags or fusion partners need not be part of it.

One experiment concerns the target DUX-Flag (mouse). Nature of the experiment: co-IP; HEK293T cells over-expressing HA-Trim43a and Zscan4, or HA-Trim43a and Dux-Flag; ZSCAN4 or DUX-Flag pulled down, TRIM43A detected by western blot; lysis in Endo-IP buffer, antibody overnight at 4 °C, protein G Dynabeads.
The next experiment has as its target ZSCAN4 (mouse). The experiment is described as above.
The target in the next experiment is HA-DUX (mouse). Nature of the experiment: co-IP; mESCs (E14) over-expressing HA-Dux and Zfp352; HA and ZFP352 antibodies for pulldown and detection; lysis in Endo-IP buffer, antibody overnight at 4 °C, protein G Dynabeads.

B1: HA-TRIM43A (enzyme, UniProt Q3TL54 1-445)
chain: MESDNLQDPQEETLTCSICQSIFMNPVYLRCGHKFCEACLLLSQEDIKFPAYCPMCMQPFNQEYINDISLKKQVSIVRKKRLMKYLNSKEHKCVTHKAKKMIFCDKSKILLCHLCSDSQEHSGHTHCSIDVAVQEKMEELLKHMDSLWRRLKIQQNYVEIERRTTLWWLSVKLREEVIKRVYGKQCPPLCEERDQHIECLRHQSNTTLEELRKSEATIVHERNQLIEVYRELMTMSQRPYQELLVQDLDDLFRRSKLAAKLDMPQGMIPRLHAHSIPGLTARLNSFRVKISFKHSIMFGYTSVRPFDIRLLHESTSLDSAETHRVSWGKKSFSRGKYYWEVDLKDHEQWTVGVRKDPWLRGRSYAATPTDLFLLECLRKEDHYILITRIGGEHYIEKPVGQVGVFLDCEGGYVSFVDVAKSSLILSYSPGTFHCAVRPFFSAVYT
B1: the binding entry with DUX-Flag (mouse) and in the experiment with ZSCAN4 (mouse) was “binds” throughout.

B2: ZFP352 (protein, UniProt A2AML7 1-551)
chain: MEMAENTGASQPGPCNTQPSPVESSQLFSGQSSEMLTWKQTVMESASCSTQETTCTQNSTAYPGKAIGFHFGQPFENTSWNQQVVSAEQKISPAGLYHTQLNSAPQICLPPQKTTRVDTRETFYNEDYWMRTLNSDKTLLTQNTAMCENQRVTFDNHQIALYGSHAGQDPNVGHAFASEHDWTSYNSHMTTRNGGHLTLYESQMTAPSCSQTLHPNQIITSFSEQNYFEDQQSNLAVNNGFYGNQVILPNGYQAFYEPQMRANFDQTNDQMKSFSGQNVCKGQENLLSGECSLSGYQTSGYRCDQDLIVNPQVTSPIGGQPLSDFQTQTSSFDTALPGSKRTRPSAEDNLACPLETSPTSEETLYLGQMRTSVDQNFYSSQNGTPNIKESLDPQVTSFSLQAPYVGESSYPSCSPLIQKQPQKNSSASSLVQRQHPEMKLDFKTQSPVSQKDPSPLKLYFCTYKGCTKFYKRAYHLKEHQKKHTDKRKYGCDEPGCTWSFFRLCDLNRHKEKHNGERFYACPLCSTNYSRLLYLKKHLEKKHAQAQPTTAT
Consider B2, for which, in the experiment with HA-DUX (mouse), the binding entry is reported as “binds”.
